From patent US20190209501A1, “COMPOSITIONS AND METHODS OF USE OF BETA-HYDROXY-BETA-METHYLBUTYRATE (HMB) […] IN[…]” (Texas Tech University Office of Research Commercialization, priority 2018, published 2019)
The amount applied is not stated for every result.

Assay: Physical activity monitoring by accelerometer (steps, PAEE, sedentary time)
Type: in vivo, human
Settings: for LI PA ES (d) / MV PA ES (d) / PAEE ES (d) / Sedentary Time ES (d) / Steps ES (d): effect size; for LI PA Δ / MV PA Δ / PAEE Δ / Sedentary Time Δ / Steps Δ: pre- to late intervention

CC(C)(O)CC(=O)O [TRFHMB, β-hydroxy-β-methylbutyrate]
LI PA (ITT, Early Intervention): 200 ± 18 min/d
MV PA (ITT, Early Intervention): 57 ± 7 min/d
PAEE (ITT, Early Intervention): 411 ± 41 kcal
Sedentary Time (ITT, Early Intervention): 570 ± 19 min/d
Steps (ITT, Early Intervention): 9179 ± 790 #/d
LI PA (ITT, Late Intervention): 210 ± 24 min/d
MV PA (ITT, Late Intervention): 44 ± 9 min/d
PAEE (ITT, Late Intervention): 352 ± 52 kcal
Sedentary Time (ITT, Late Intervention): 570 ± 23 min/d
Steps (ITT, Late Intervention): 7896 ± 1094 #/d
LI PA (ITT, Pre-intervention): 203 ± 16 min/d
MV PA (ITT, Pre-intervention): 48 ± 7 min/d
PAEE (ITT, Pre-intervention): 378 ± 49 kcal
Sedentary Time (ITT, Pre-intervention): 574 ± 16 min/d
Steps (ITT, Pre-intervention): 8393 ± 855 #/d
LI PA ES (d) (ITT): 0.10
MV PA ES (d) (ITT): −0.14
PAEE ES (d) (ITT): −0.14
Sedentary Time ES (d) (ITT): −0.06
Steps ES (d) (ITT): −0.14
LI PA Δ (ITT): 7 min/d
MV PA Δ (ITT): −4 min/d
PAEE Δ (ITT): -26 kcal
Sedentary Time Δ (ITT): −4 min/d
Steps Δ (ITT): −497 #/d
LI PA (PP, Early intervention): 222 ± 22 min/d
MV PA (PP, Early intervention): 58 ± 10 min/d
PAEE (PP, Early intervention): 453 ± 61 kcal
Sedentary Time (PP, Early intervention): 546 ± 23 min/d
Steps (PP, Early intervention): 9385 ± 984 #/d
LI PA (PP, Late Intervention): 208 ± 29 min/d
MV PA (PP, Late Intervention): 48 ± 13 min/d
PAEE (PP, Late Intervention): 409 ± 80 kcal
Sedentary Time (PP, Late Intervention): 561 ± 31 min/d
Steps (PP, Late Intervention): 8274 ± 1596 #/d
LI PA (PP, Pre-intervention): 214 ± 17 min/d
MV PA (PP, Pre-intervention): 52 ± 11 min/d
PAEE (PP, Pre-intervention): 438 ± 73 kcal
Sedentary Time (PP, Pre-intervention): 556 ± 20 min/d
Steps (PP, Pre-intervention): 9286 ± 1379 #/d
LI PA ES (d) (PP): −0.10
MV PA ES (d) (PP): −0.13
PAEE ES (d) (PP): 0.28
Sedentary Time ES (d) (PP): 0.07
Steps ES (d) (PP): −0.26
LI PA Δ (PP): −6 min/d
MV PA Δ (PP): −4 min/d
PAEE Δ (PP): -29 kcal
Sedentary Time Δ (PP): 5 min/d
Steps Δ (PP): −1012 #/d
